In publication PMC3195428 one finds binding data, which are given here for two molecules.

This assay concerns the target T1, GST-PTP1B-DA (D181A substrate-trapping mutant of PTP1B, GST-tagged) (UniProt P18031).
T1 sequence: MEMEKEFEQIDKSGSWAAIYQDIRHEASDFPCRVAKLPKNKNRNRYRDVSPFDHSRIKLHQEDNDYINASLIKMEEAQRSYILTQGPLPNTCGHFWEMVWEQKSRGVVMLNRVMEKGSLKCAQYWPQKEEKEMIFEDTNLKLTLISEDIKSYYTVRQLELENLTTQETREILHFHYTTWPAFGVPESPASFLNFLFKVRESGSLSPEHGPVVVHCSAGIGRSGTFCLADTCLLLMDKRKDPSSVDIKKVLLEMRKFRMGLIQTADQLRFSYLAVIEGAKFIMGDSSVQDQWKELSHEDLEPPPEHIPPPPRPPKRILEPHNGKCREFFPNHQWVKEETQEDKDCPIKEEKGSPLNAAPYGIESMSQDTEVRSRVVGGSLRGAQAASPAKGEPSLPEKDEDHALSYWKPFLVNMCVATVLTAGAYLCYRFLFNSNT
As to the kind of experiment: pull-down; Cos-1 cells co-transfected with GST-tagged PTP (pEBG) and nephrin or fyn; lysate (250 ug protein; 25 mM HEPES pH 7.5, 1% Triton X-100, 10 mM MgCl2, 100 mM NaCl, 5% glycerol) incubated 2 h at 4 C with glutathione-sepharose beads; immunoblotting.

These are yes or no findings as the source states them, for the method shown. Binding seen in cells or lysates may run through a third protein. Some results given as binding are weak or reduced against the parent protein; the word gives no strength. Where a sequence is shown, tags or fusion partners need not be part of it.

B1: rat nephrin Y1152F (protein, UniProt Q9R044 37-1252)
chain: ESPVPTSAPRGFWALSENLTAVEGTTVKLWCGVRAPGSVVQWAKDGLLLGPNPKMPGFPRYSLEGDRAKGEFHLLIEACDLSDDAEYECQVGRSELGPELVSPKVILSILVSPKVLLLTPEAGSTVTWVAGQEYVVTCVSGDAKPAPDITFIQSGRTILDVSSNVNEGSEEKLCITEAEARVIPQSSDNGQLLVCEGSNPALDTPIKASFTMNILFPPGPPVIDWPGLNEGHVRAGENLELPCTARGGNPPATLQWLKNGKPVSTAWGTEHAQAVAHSVLVMTVRPEDHGARLSCQSYNSVSAGTQERSITLQVTFPPSAITILGSVSQSENKNVTLCCLTKSSRPRVLLRWWLGGRQLLPTDETVMDGLHGGHISMSNLTFLVRREDNGLPLTCEAFSDAFSKETFKKSLTLNVKYPAQKLWIEGPPEGQYIRTGTRVRLVCLAIGGNPDPSLIWFKDSRPVSEPRQPQEPRRVQLGSVEKSGSTFSRELVLIIGPPDNRAKFSCKAGQLSASTQLVVQFPPTNLTILANSSALRPGDALNLTCVSISSNPPVNLSWDKEGERLEDVAAKPQSAPFKGSAASRSVFLRVSSRDHGQRVTCRAHSEALRETVSSFYRFNVLYPPEFLGEQVRAVTVVEQGQVLLPVSVSANPAPEAFNWTFRGYRLSPAGGPRHRILSGGALQLWNVTRADDGFYQLHCQNSEGTAEALLKLDVHYAPTIRALRDPTEVNVGGSVDIVCTVDANPILPEMFSWERLGEEEEDLNLDDMEKVSKGSTGRLRIRQAKLSQAGAYQCIVDNGVAPAARGLVRLVVRFAPQVDQPTPLTKVAAAGDSTSSATLHCRARGVPNIDFTWTKNGVPLDLQDPRYTEHRYHQGVVHSSLLTIANVSAAQDYALFKCTATNALGSDHTNIQLVSISRPDPPLGLKVVSISPHSVGLEWKPGFDGGLPQRFQIRYEALETPGFLHVDVLPTQATTFTLTGLKPSTRYRIWLLASNALGDSGLTDKGIQVSVTTPGPDQAPEDTDHQLPTELPPGPPRLPLLPVLFAVGGLLLLSNASCVGGLLWRRRLRRLAEEISEKTEAGSEDRIRNEYEESQWTGDRDTRSSTVSTAEVDPNFYSMRDFSPQLPPTLEEVLYHQGAEGEDMAFPGHLHDEVERAYGPPGAWGPLYDEVRMDPYDLRWPEVQCEDPRGIYDQVAADMDAVEASSLPFELRGHLV
Take B1: the binding result is “binds”.

B2: rat nephrin Y1204/1228F (protein, UniProt Q9R044 37-1252)
chain: ESPVPTSAPRGFWALSENLTAVEGTTVKLWCGVRAPGSVVQWAKDGLLLGPNPKMPGFPRYSLEGDRAKGEFHLLIEACDLSDDAEYECQVGRSELGPELVSPKVILSILVSPKVLLLTPEAGSTVTWVAGQEYVVTCVSGDAKPAPDITFIQSGRTILDVSSNVNEGSEEKLCITEAEARVIPQSSDNGQLLVCEGSNPALDTPIKASFTMNILFPPGPPVIDWPGLNEGHVRAGENLELPCTARGGNPPATLQWLKNGKPVSTAWGTEHAQAVAHSVLVMTVRPEDHGARLSCQSYNSVSAGTQERSITLQVTFPPSAITILGSVSQSENKNVTLCCLTKSSRPRVLLRWWLGGRQLLPTDETVMDGLHGGHISMSNLTFLVRREDNGLPLTCEAFSDAFSKETFKKSLTLNVKYPAQKLWIEGPPEGQYIRTGTRVRLVCLAIGGNPDPSLIWFKDSRPVSEPRQPQEPRRVQLGSVEKSGSTFSRELVLIIGPPDNRAKFSCKAGQLSASTQLVVQFPPTNLTILANSSALRPGDALNLTCVSISSNPPVNLSWDKEGERLEDVAAKPQSAPFKGSAASRSVFLRVSSRDHGQRVTCRAHSEALRETVSSFYRFNVLYPPEFLGEQVRAVTVVEQGQVLLPVSVSANPAPEAFNWTFRGYRLSPAGGPRHRILSGGALQLWNVTRADDGFYQLHCQNSEGTAEALLKLDVHYAPTIRALRDPTEVNVGGSVDIVCTVDANPILPEMFSWERLGEEEEDLNLDDMEKVSKGSTGRLRIRQAKLSQAGAYQCIVDNGVAPAARGLVRLVVRFAPQVDQPTPLTKVAAAGDSTSSATLHCRARGVPNIDFTWTKNGVPLDLQDPRYTEHRYHQGVVHSSLLTIANVSAAQDYALFKCTATNALGSDHTNIQLVSISRPDPPLGLKVVSISPHSVGLEWKPGFDGGLPQRFQIRYEALETPGFLHVDVLPTQATTFTLTGLKPSTRYRIWLLASNALGDSGLTDKGIQVSVTTPGPDQAPEDTDHQLPTELPPGPPRLPLLPVLFAVGGLLLLSNASCVGGLLWRRRLRRLAEEISEKTEAGSEDRIRNEYEESQWTGDRDTRSSTVSTAEVDPNYYSMRDFSPQLPPTLEEVLYHQGAEGEDMAFPGHLHDEVERAYGPPGAWGPLFDEVRMDPYDLRWPEVQCEDPRGIFDQVAADMDAVEASSLPFELRGHLV
As for B2, the binding result is “no binding”.
